Values are relative to the signal before dosing, not to a vehicle control; the signal also falls without drug.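 Fibroblast labels name human fibroblasts: mostly primary ones from tissues such as uterus (C12385, HUF), lung (H6013), bone (Hs27A), adrenal (HADF) and skin (WS1), plus mammary HMF and breast cancer-associated Hs343T. The cancer cells are basal-like or mesenchymal-like triple-negative breast cancer lines. The paper calls a changed response a hit when it shifts by more than 3x the replicate standard deviation. The tissue of the other fibroblasts is not given here.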
System: MDAMB436
Assay: relative JC-1 red fluorescence (viability) vs pre-drug, coculture with fibroblast (fraction); higher = more viable cancer cells
Settings: 10 µM
Description: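 JC-1 labelled TNBC cells cocultured 1:1 (1,500 cells each) with CellTrace Violet stained primary or stromal fibroblasts in 384-well plates in FluoroBrite medium, treated with one of 42 anticancer drugs at 0.1, 1, 10 or 100 uM. JC-1 red fluorescence (mitochondrial integrity in cancer cells only) was read by plate reader every 8 h for 72 h. Values are normalised to each well's pre-drug value. The stock of one drug was tenfold lower, so its dose labels may be too high.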

C=C1C[C@@H]2[C@H](CC[C@]3(C)C(=O)CC[C@@H]23)[C@@]2(C)C=CC(=O)C=C12 [Exemestane]
relative JC-1 red fluorescence
Settings	8 h	16 h	24 h	32 h	40 h	48 h	56 h	64 h	72 h
coculture fibroblast: C12385	0.8474	0.7756	0.749	0.68	0.63	0.603	0.576	0.534	0.52
coculture fibroblast: H6013	0.891	0.836	0.801	0.805	0.777	0.784	0.748	0.718	0.67
coculture fibroblast: H6019	0.78519	0.7075	0.7102	0.645	0.6043	0.581	0.531	0.494	0.46
coculture fibroblast: H6076	0.784	0.66	0.646	0.609	0.594	0.585	0.582	0.572	0.564
coculture fibroblast: H6231	0.749	0.66	0.564	0.523	0.492	0.4553	0.4321	0.4043	0.387
coculture fibroblast: HADF	0.901	0.858	0.817	0.785	0.762	0.757	0.712	0.676	0.631
coculture fibroblast: HCFa	0.927	0.897	0.877	0.867	0.831	0.83	0.771	0.74	0.685
coculture fibroblast: HCPF	0.817	0.746	0.648	0.606	0.568	0.519	0.479	0.461	0.434
coculture fibroblast: HHSteC	0.889	0.835	0.824	0.791	0.778	0.773	0.711	0.677	0.624
coculture fibroblast: HMF	0.829	0.826	0.723	0.667	0.592	0.54	0.499	0.46731	0.442
coculture fibroblast: HPFa	0.912	0.866	0.833	0.796	0.77	0.772	0.69	0.644	0.567
coculture fibroblast: HUF	0.8857	0.8121	0.7985	0.731	0.681	0.659	0.629	0.61	0.596
coculture fibroblast: Hs5	0.8	0.716	0.652	0.59	0.562	0.517	0.507	0.469	0.454
coculture fibroblast: Hs27A	0.883	0.829	0.842	0.844	0.821	0.876	0.8	0.786	0.713
coculture fibroblast: Hs343T	0.777	0.682	0.661	0.65	0.623	0.587	0.573	0.57	0.566
coculture fibroblast: WS1	0.8342	0.74	0.727	0.662	0.622	0.596	0.562	0.51629	0.4893

Source: the supplement of paper PMC6078165
